Experimental data: paper doi:10.1101/2023.09.14.557851
These are yes or no findings as the source states them, for the method shown. In cells and extracts the contact can be indirect. Some entries that bind do so weakly or less than the wild type. Tags and fused reporters may be left off the sequences shown.

Target: T1, human β-glucocerebrosidase (human) (UniProt P04062)
T1 sequence: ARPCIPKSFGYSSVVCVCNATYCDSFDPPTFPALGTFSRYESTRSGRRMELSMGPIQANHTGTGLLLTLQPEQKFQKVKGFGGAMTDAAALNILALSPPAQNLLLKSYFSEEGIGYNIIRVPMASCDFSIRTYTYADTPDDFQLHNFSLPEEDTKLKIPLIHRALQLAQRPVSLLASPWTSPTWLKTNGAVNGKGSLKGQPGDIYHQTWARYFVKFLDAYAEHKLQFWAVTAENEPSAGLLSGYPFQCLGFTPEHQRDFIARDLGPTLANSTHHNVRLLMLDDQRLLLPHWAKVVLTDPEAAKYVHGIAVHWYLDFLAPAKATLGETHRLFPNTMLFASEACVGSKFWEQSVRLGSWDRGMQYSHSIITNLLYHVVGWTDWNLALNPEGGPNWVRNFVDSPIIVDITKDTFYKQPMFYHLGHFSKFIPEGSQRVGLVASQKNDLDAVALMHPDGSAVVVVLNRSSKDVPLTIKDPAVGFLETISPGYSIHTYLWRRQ
Assay: co-IP; hGCase in GBA1+/+ and GBA1-/- human neuron lysates immunocaptured with hGCase-1/23 on Protein A Dynabeads (1 hour at RT); LIMP2 in the co-precipitates detected with a LIMP2 antibody

B1: lysosomal integral membrane protein-2 (receptor, UniProt Q14108 1-478)
chain: MGRCCFYTAGTLSLLLLVTSVTLLVARVFQKAVDQSIEKKIVLRNGTEAFDSWEKPPLPVYTQFYFFNVTNPEEILRGETPRVEEVGPYTYRELRNKANIQFGDNGTTISAVSNKAYVFERDQSVGDPKIDLIRTLNIPVLTVIEWSQVHFLREIIEAMLKAYQQKLFVTHTVDELLWGYKDEILSLIHVFRPDISPYFGLFYEKNGTNDGDYVFLTGEDSYLNFTKIVEWNGKTSLDWWITDKCNMINGTDGDSFHPLITKDEVLYVFPSDFCRSVYITFSDYESVQGLPAFRYKVPAEILANTSDNAGFCIPEGNCLGSGVLNVSICKNGAPIIMSFPHFYQADERFVSAIEGMHPNQEDHETFVDINPLTGIILKAAKRFQINIYVKKLDDFVETGDIRTMVFPVMYLNESVHIDKETASRLKSMINTTLIITNIPYIIMALGVFFGLVFTWLACKGQGSMDEGTADERAPLIRT
binding: binds
